Laboratory results taken from US10087172B2, “Compounds and their methods of use” (AGIOS PHARMACEUTICALS, INC, priority 2012, dated 2018).

The chains behind the UniProt entries cited, without tags or fusion partners. Residues count along the entry.
UniProt O94925, 55-598 isoform 3 limits assumed: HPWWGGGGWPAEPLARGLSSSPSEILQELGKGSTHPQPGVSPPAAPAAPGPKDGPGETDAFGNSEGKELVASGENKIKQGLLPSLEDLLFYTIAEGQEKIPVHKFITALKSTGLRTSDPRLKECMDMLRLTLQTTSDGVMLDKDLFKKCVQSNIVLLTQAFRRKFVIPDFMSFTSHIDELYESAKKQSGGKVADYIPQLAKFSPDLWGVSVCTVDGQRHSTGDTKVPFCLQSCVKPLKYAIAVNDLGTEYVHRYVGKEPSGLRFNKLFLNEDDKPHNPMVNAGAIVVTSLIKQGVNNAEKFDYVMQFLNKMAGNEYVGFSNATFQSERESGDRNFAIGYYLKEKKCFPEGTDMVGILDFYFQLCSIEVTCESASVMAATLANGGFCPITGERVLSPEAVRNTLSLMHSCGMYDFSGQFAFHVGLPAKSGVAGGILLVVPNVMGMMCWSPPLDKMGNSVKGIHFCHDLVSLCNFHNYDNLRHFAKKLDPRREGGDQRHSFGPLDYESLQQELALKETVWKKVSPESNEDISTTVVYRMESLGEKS

Biological target: glutaminase (GAC) (Homo sapiens, UniProt O94925)
Assay: Glutaminase (GAC) coupled endpoint enzymatic assay (glutamate dehydrogenase/diaphorase/resazurin, Ex544/Em590)
Conditions: inhibition of glutaminase, tested in an assay of Example A or Example B; class symbols A-E

IC50: 500 to 1000 nM
Compound: O=C(Cc1cccc(C(F)(F)F)c1)Nc1nnc([C@H]2CCC[C@H](c3nnc(NC(=O)Cc4cccc(C(F)(F)F)c4)s3)C2)s1

The match of structure and compound is tentative.
